Data reported in PubChem BioAssay AID2685 (National Center for Advancing Translational Sciences (NCATS), 2010).
The other results are listed elsewhere or left out. Shown are side measurements of this screen, not its main read-out; they come without a call. Most of these compounds were active or inconclusive in the main read-out, so they are no random draw. Potencies come from curve fits of mixed quality, noted in brackets.

Experiment: qHTS Assay for Lipid Storage Modulators in Drosophila S3 Cells;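 for cell number change: cells counted by Cell Tracker Red CMTPX staining in the red channel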
Details: BODIPY lipid droplet fluorescence, 18-24 h; for cell number change: measured here: cell count max response, cells fed with added oleic acid
How it was run: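 Laser-scanning cytometry quantifies lipid droplet accumulation (500–530 nm total intensity; droplet/cell object ratio) in oleic acid-fed (400 uM added) Drosophila S3 cells treated with a concentration series. 20 uM Triacsin C defined 100% inhibition.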

[1] = measured here: lipid fluorescence (Fed channel) AC50, cells fed with added oleic acid
[2] = measured here: cell number channel AC50, cells fed with added oleic acid

Structure (SMILES)	cell number change	AC50 [1]	AC50 [2]
CCOc1ccc2nc(N/C(N)=N/C(=S)Nc3cccc(C)c3)nc(C)c2c1	18.4%	29.1 µM [rising, single point]	
O=C(Nc1ccc(Cl)cc1)c1cccs1	-1.59%	6.51 µM [falling, partial curve, poor fit]	
O=C(Nc1cccc(Cl)c1)c1cc(-c2ccco2)on1	30%		
Oc1ccccc1-c1nc(NCc2ccco2)c2ccccc2n1	-44.2%	4.61 µM [rising, full curve, poor fit]	
CC(C)C(=O)NCCSc1c[nH]c2ccccc12	-0.851%	0.82 µM [falling, full curve]	1.03 µM [falling, full curve]
COc1ccc([C@@]2(O)c3c(ccc(CC=C(C)C)c3O)NC(=O)[C@@H]2OC)cc1	-15.9%	0.116 µM [falling, full curve, poor fit]	
COc1cc(/C=C/C(=O)NC(C)(C)C)ccc1OCc1ccccc1		29.1 µM [falling, single point]	
CC1=NN(C(N)=S)C(=O)C1N=Nc1ccc(C)cc1C (stereo not given)	12.5%	6.51 µM [falling, single point]	
CCOC(=O)c1ccc(NC(=O)CSc2nnc(Cc3cccs3)n2C)cc1	-12.6%		
CCOC(=O)C1CCN(S(=O)(=O)c2ccc(OC)c(Cl)c2Cl)CC1	-31.2%	5.8 µM [falling, single point]	0.411 µM [falling, full curve, poor fit]
CC1(C)CC(=O)c2sc(NS(=O)(=O)Cc3ccccc3)nc2C1	0.28%		0.00517 µM [rising, full curve, poor fit]
O=C(CCCSc1nc2ccccc2[nH]1)NC1CCCCC1		3.26 µM [rising, single point]	2.91 µM [rising, single point]
Cc1ccc(-c2cn3cccnc3n2)cc1NC(=O)c1c(-c2ccccc2Cl)noc1C	-50.4%		23.1 µM [falling, single point]
N#Cc1nc(COc2ccc(F)cc2)oc1N1CCCC1	17.7%	2.06 µM [rising, partial curve]	
CC(=O)OC1CCC2(C)C(COc3ccc4ccc(=O)oc4c3)C(C)(O)CCC2C1(C)C (stereo not given)	-19.7%	2.91 µM [rising, single point]	
N#CCCN1CCN(C(=S)c2ccc(-c3ccc(Cl)c(Cl)c3)o2)CC1	-2.29%	1.03 µM [rising, full curve, poor fit]	
N#Cc1nc(-c2cccs2)oc1N1CCN(Cc2ccccc2)CC1	-15.9%	13 µM [rising, partial curve]	
CCCCCOC(=O)C1=C(C)N(C)C(=O)NC1c1cc(Br)c(O)c(OC)c1 (stereo not given)	210%		29.1 µM [rising, single point]
CCOC(=O)c1ccc(NC(=O)CSc2nnc(CNC(=O)c3ccco3)o2)cc1		11.6 µM [falling, single point]	
Cc1nc(-c2ccncc2)nc(NCCNc2ccc(C(F)(F)F)cn2)c1Cl	-8.26%		

Structure (SMILES)	cell number change	AC50 [1]	AC50 [2]
COc1cccc(NC(=O)C2CCN(Cc3cnn(-c4ccccc4)c3-n3cccc3)CC2)c1	-46.6%	18.4 µM [falling, single point]	23.1 µM [falling, single point]
O=C(NCCCN1CCOCC1)c1cnccn1	18.2%	0.13 µM [rising, single point]	
NC(=O)C(c1ccccc1)C1CCCCC1 (stereo not given)	6.64%	25.9 µM [falling, single point]	
NC1=NCc2ccccc21		9.2 µM [falling, partial curve]	
N#CC(C#N)=C1C=CC=CN1/C(=C\c1ccco1)C(=O)c1ccc(Cl)cc1	-50.8%	2.59 µM [falling, full curve]	2.31 µM [falling, full curve]
CCOc1ccc(C2C=C(c3ccc(F)cc3)Nc3ncnn32)cc1 (stereo not given)		5.17 µM [rising, single point]	1.3 µM [rising, full curve]
CC1CN(C(=O)c2ccc(CNS(=O)(=O)c3cccc(C(F)(F)F)c3)cc2)CC(C)O1 (stereo not given)	-26.7%	25.9 µM [falling, single point]	
CCOc1ccc(CCNC(=O)COC(=O)Cc2ccc(OC)c(OC)c2)cc1OCC	20.9%		
NS(=O)(=O)c1ccc(CCNC/C=C/c2ccccc2)cc1	-10.6%	5.17 µM [rising, full curve, poor fit]	
O=C1OC(CN2CCOCC2)CN1N=Cc1ccc([N+](=O)[O-])o1 (stereo not given)	-8.43%	25.9 µM [falling, single point]	
COc1ccc(C(=O)Nc2ccccc2)cc1NC(=O)c1ccc([N+](=O)[O-])cc1	-14.2%	29.1 µM [falling, single point]	
CCCCCOc1ccc(C(=O)CCN2CCOCC2)cc1	-14.7%	6.51 µM [falling, full curve]	
CCc1sc(C(=O)Nc2cccc(-n3cnnn3)c2)cc1C	-3.17%	0.461 µM [rising, full curve, poor fit]	
CN(Cc1ccco1)C(=O)c1cc2c(s1)-c1ccc(Cl)cc1S(=O)(=O)C2	-10%	6.51 µM [rising, single point]	
O=c1c2ccccc2oc2ccc(NCCCn3ccnc3)cc12	-3.29%	29.1 µM [rising, single point]	
CCOc1ccccc1Nc1nc(-c2sc(NC(=O)c3ccccc3)nc2C)cs1	-1.26%	0.231 µM [rising, single point]	6.51 µM [rising, single point]
O=C(Cc1cccs1)NCc1cccc(Cl)c1	-4.96%	0.13 µM [falling, full curve, poor fit]	
COc1ccc(NC(=O)CNC(=O)Cn2ccc3ccccc3c2=O)c(OC)c1	14.9%	6.51 µM [rising, single point]	
COCC(=O)NCCc1nc2ccccc2[nH]1	-20.8%	14.6 µM [falling, partial curve]	3.26 µM [falling, single point]
COc1ccccc1Cn1nnc2c(=O)[nH]c(C3CCN(C(=O)c4ccc(C)cc4)CC3)nc21	-6.93%	20.6 µM [falling, partial curve]	

4 entries from above, as a markdown table:

| Structure (SMILES) | cell number change | AC50 [1] | AC50 [2] |
| --- | --- | --- | --- |
| O=C(Nc1ccc(Cl)cc1)c1cccs1 | -1.59% | 6.51 µM [falling, partial curve, poor fit] |  |
| COc1cccc(NC(=O)C2CCN(Cc3cnn(-c4ccccc4)c3-n3cccc3)CC2)c1 | -46.6% | 18.4 µM [falling, single point] | 23.1 µM [falling, single point] |
| CC1CN(C(=O)c2ccc(CNS(=O)(=O)c3cccc(C(F)(F)F)c3)cc2)CC(C)O1 (stereo not given) | -26.7% | 25.9 µM [falling, single point] |  |
| CCOc1ccc(CCNC(=O)COC(=O)Cc2ccc(OC)c(OC)c2)cc1OCC | 20.9% |  |  |

(listing goes on)

Structure (SMILES)	cell number change	AC50 [1]	AC50 [2]
CC(C)c1ccc(NC2CCCN(C(=O)c3n[nH]c4c3CCC4)C2)cc1 (stereo not given)		1.84 µM [falling, partial curve]	
O=[N+]([O-])c1cccc(-c2nc3ccccc3s/c2=N/O)c1	-52.1%	23.1 µM [falling, partial curve]	18.4 µM [falling, partial curve]
CCOC(=O)Cn1c(=N)n(Cc2ccccc2F)c2ccccc21		23.1 µM [falling, partial curve]	
COc1ccc(NC(=O)Nc2ccc(Cc3ccncc3)cc2)c(OC)c1	35.8%	5.17 µM [rising, full curve]	6.51 µM [rising, single point]
CCC(C)NC(=O)c1ccc(N2CC3CC(C2)c2cccc(=O)n2C3)c(NC(=O)c2ccc(Br)o2)c1 (stereo not given)	6.05%	1.46 µM [falling, partial curve]	
CCOC(=O)CSc1nc(CC)nc2ccccc12	-32.3%	0.092 µM [falling, full curve, poor fit]	16.4 µM [falling, single point]
CC(C)(C)C1CCc2onc(C(=O)Nc3cccc(O)c3)c2C1 (stereo not given)	-47%		23.1 µM [falling, partial curve, poor fit]
NC1=NC2CS(=O)(=O)CC2S1 (stereo not given)	9.02%	1.03 µM [rising, partial curve]	
O=[N+]([O-])c1ncccc1Oc1nc(-c2cccnc2)nc2ccccc12	70.9%		9.2 µM [rising, partial curve]
c1ccc(Cn2ccnc2SCc2nnc(-c3ccccc3)o2)cc1	6.55%		0.651 µM [rising, full curve, poor fit]
Cn1c(Cc2ccccc2)n[nH]c1=S	-66.7%		0.082 µM [falling, full curve, poor fit]
O=S(=O)(NC1CCCC1)c1cccc(S(=O)(=O)N2CCC(n3nnc4ccccc43)CC2)c1	-16.9%	29.1 µM [falling, single point]	
CC1CCN(S(=O)(=O)c2ccc(C(=O)NCc3cccnc3)cc2)CC1			0.092 µM [rising, single point]
CN(Cc1ccccc1)S(=O)(=O)c1ccc2[nH]cc(C(=O)NCC3CCCO3)c(=O)c2c1 (stereo not given)	-22.7%	10.3 µM [falling, single point]	
Cc1cccc(NC(=O)c2cccc(NC(=O)c3ccccc3)c2)n1	3.72%	29.1 µM [falling, single point]	
Cc1ccc2nsnc2c1S(=O)(=O)N(Cc1cc2cccc(C)c2[nH]c1=O)CC1CCCO1 (stereo not given)	120%		23.1 µM [rising, single point]
CC(C)NC(=O)CSc1nncn1-c1ccccc1		0.082 µM [rising, full curve, poor fit]	
CCOc1ccc(-c2cc(C(=O)NCCCn3ccnc3)c3ccccc3n2)cc1		0.13 µM [rising, full curve, poor fit]	
O=C(CSc1nnc(CNC(=O)c2cccc(C(F)(F)F)c2)o1)NC1CCCCC1	-28.7%	6.51 µM [rising, single point]	
